The results in this text go back to article PMC10897393, “Cellular reprogramming in vivo initiated by SOX4 pioneer factor activity”.

Amino acid sequences for entries named in this document (tags omitted). A change or cut given only in a name is not applied to a line headed by its entry.
UniProt Q06831: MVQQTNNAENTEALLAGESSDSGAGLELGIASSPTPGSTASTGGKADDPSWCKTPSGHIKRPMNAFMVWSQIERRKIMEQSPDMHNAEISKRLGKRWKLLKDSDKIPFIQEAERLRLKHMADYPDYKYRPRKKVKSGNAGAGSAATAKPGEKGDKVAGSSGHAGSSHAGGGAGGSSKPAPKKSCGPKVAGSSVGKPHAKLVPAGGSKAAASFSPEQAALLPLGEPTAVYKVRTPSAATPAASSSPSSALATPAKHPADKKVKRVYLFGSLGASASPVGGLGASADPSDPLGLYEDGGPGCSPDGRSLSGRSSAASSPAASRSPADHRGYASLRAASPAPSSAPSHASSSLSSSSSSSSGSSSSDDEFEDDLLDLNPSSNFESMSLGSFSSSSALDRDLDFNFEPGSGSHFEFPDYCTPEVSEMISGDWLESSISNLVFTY
UniProt O09106: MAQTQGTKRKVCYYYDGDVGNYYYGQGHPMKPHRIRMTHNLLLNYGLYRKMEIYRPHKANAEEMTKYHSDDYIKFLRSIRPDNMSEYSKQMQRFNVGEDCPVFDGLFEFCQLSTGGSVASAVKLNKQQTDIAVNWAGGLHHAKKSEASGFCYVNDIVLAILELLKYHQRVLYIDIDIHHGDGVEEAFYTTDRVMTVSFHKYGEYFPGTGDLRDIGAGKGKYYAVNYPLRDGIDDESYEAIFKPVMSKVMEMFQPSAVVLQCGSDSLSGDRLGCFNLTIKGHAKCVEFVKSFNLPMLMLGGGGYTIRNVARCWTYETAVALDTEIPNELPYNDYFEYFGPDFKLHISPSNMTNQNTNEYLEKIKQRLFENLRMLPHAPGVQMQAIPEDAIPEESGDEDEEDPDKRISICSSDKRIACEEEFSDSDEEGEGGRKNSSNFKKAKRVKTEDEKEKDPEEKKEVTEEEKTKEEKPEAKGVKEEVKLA

Results are given in words; binding and its absence hold for the method and conditions named. Binding seen in cells or lysates may run through a third protein. Some results given as binding are weak or reduced against the parent protein; the word gives no strength.

The experiment deals with HA-tagged SOX4 (mouse), ectopically expressed in hepatocytes from AAV8-TBG-HA-Sox4-P2A-Cre (mouse) (UniProt Q06831). Kind of experiment: co-IP; anti-HA magnetic beads on 500 ug lysate of hepatocytes from AAV8-TBG-HA-Sox4-P2A-Cre-injected mice (2 dpi); AAV8-EV hepatocytes as negative control; lysis in 50 mM Tris pH 7.5, 150 mM NaCl, 0.1% NP-40, 5 mM EDTA, sonicated; RT 30 min; 5 washes in TBS-T; blots with anti-HDAC1, 2 or 3.

HDAC1 (from UniProt O09106 1-482): the binding entry is listed as “binds”.
